Laboratory results from patent US8383880B2, “Infertility control of genetically modified fish” (Academia Sinica, priority 2009, dated 2013).
At least one structure is not confirmed: it was looked up by name or label, or the drawing left a doubt.

Legend:
Assay type in all cases: in vivo, zebrafish
[1] = tested on: female Tg(ZP:NTR-EGFP) fish; assay: Mtz immersion of female Tg(ZP:NTR-EGFP): gonad EGFP expression and ovary anatomy
[2] = tested on: Tg(OS-eGFP:Ntr), Tg(AO-eGFP:Ntr), Tg(AS-eGFP:Ntr), and Tg(AOS-eGFP:Ntr) fish; assay: Depuration studies after Met treatment; conditions: compound transgenic lines after Met treatment
[3] = tested on: oocytes of Tg(ZP:NTR-EGFP) female fish; assay: Histological analysis of oocytes by H&E staining; conditions: Mtz-treated Tg(ZP:NTR-EGFP) female fish, treatment from 28 days posthatching
[4] = tested on: testes of eGFP:Ntr transgenic lines; assay: Histological analysis of testis sections
[5] = tested on: 14 dpf transgenic embryos; assay: Metronidazole dependent cell ablation, dose response in ablating gonad; conditions: 5 mM Met, a day interval of treatment for 1 week, 14 dpf embryos; range tested 1-10 mM
Experimental: Metronidazole (Met, M3761, Sigma) was dissolved in a standard zebrafish embryo medium with vigorous agitation. Embryos were incubated at 28° C. in the dark, and 14-21 dpf transgenic embryos were used to study the dose response of Met in ablating gonad. In initial studies, 14 dpf embryos were incubated in a range of Met concentrations (1-10 mM).

Bcl-2 gene family = assay: Detection of Bcl-2 gene family by real-time quantitative PCR in ovary tissue; conditions: Mtz-treated female Tg(ZP:NTR-EGFP)

## Cc1ncc([N+](=O)[O-])n1CCO [Mtz]
[1]; 5 mM Mtz from 28 days posthatching, at 6 weeks posthatching
  expression of EGFP in the gonads: disappeared completely
[1]; adult female, continuous 5 mM Mtz treatment
  anatomical changes in the ovary: lacking oocytes due to atrophy and dysgenesis
[2]
  recovery in reproductive capacity after depuration: no recovery in reproductive capacity
[3]
  formation of oocytes (H&E staining): no mature oocytes formed
[4]; Met-treated Tg(OS-eGFP:Ntr), Tg(AO-eGFP:Ntr), Tg(AS-eGFP:Ntr) bred to 4 months
  spermatogenesis: arrest in spermatogenesis at metaphase I
[4]; Met-treated eGFP:Ntr transgenic lines
  spermatids and spermatozoa in the testes: very low counts of spermatids and spermatozoa
[4]; Met-treated older Tg(AOS-eGFP:Ntr) fish (≧6 months)
  testis morphology: very small and withered testes
[5]
  fluorescence of gonad: complete loss of fluorescence
Bcl-2 gene family
  expression of the antiapoptotic genes mcl-1a and mcl-1b: not affected
Bcl-2 gene family; P<0.05
  expression of ovarian killer genes bok-1 and bok-2: upregulated
